PubChem BioAssay AID652243 | Drosophila RNAi Screening Center – 2013
Purpose: 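Knock-downs that decrease or increase androgen receptor reporter signal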 (primary screen). System: Drosophila S2R+ cells. Reagent: long dsRNA against Drosophila genes. Timing: 72 h (48 h, then 24 h hormone). Conditions: synthetic androgen R1881 at 10 nM for 24 h. Measurement: 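Per-well raw luminescence of the androgen-driven firefly reporter and of the Renilla control, two replicates each, without normalisation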. Direction: firefly reporter light: higher = more light from androgen-responsive reporter; Renilla control light: higher = more constitutive control signal (cell number, transfection). Rule for the call: 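Across duplicate plates, a knock-down whose log firefly/Renilla ratio shifted a set fold down or up from the GFP/LacZ control mean was a hit; the downward cut appears as both 1.5 and 3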. Calls: active = hit: reporter lowered or raised; inactive = no hit.
The deposit covers about 24,000 reagents; this is a random part of those with a known target gene and a result. Over the whole deposit, 246 (1%) are marked active. 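Plates not normalised; calls are printed but the firefly/Renilla ratio behind them is not deposited; fold cut for lowering reported inconsistently.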 The raw values are shown without normalisation. Entries without a mark were called inactive. Names joined by + are all predicted targets of the reagent. The record does not give: the amount of reagent.

| gene knocked down | amplicon | firefly reporter light, replicate 1 | firefly reporter light, replicate 2 | Renilla control light, replicate 1 | Renilla control light, replicate 2 |
| --- | --- | --- | --- | --- | --- |
| cathD | DRSC07588 | 1.97e5 | 2.03e5 | 1.86e6 | 1.37e6 |
| ms(2)34Fe | DRSC01905 | 1.41e5 | 1.63e5 | 1.95e6 | 1.66e6 |
| primo-2 + primo-1 | DRSC16511 | 1.90e5 | 1.93e5 | 3.11e6 | 3.50e6 |
| primo-2 + primo-1 | DRSC27823 | 2.75e5 | 2.94e5 | 5.05e5 | 6.28e5 |
| La | DRSC03358 | 78649 | 1.18e5 | 1.15e6 | 8.56e5 |
| Nle | DRSC00763 | 97749 | 95247 | 6.32e5 | 8.07e5 |
| CG11307 | DRSC11648 | 5.31e5 | 6.83e5 | 1.83e6 | 2.20e6 |
| CG11307 | DRSC26602 | 5.47e5 | 4.93e5 | 6.10e5 | 6.49e5 |
| CG31301 | DRSC22164 | 5.81e5 | 4.66e5 | 1.26e6 | 1.13e6 |
| TotZ | DRSC13450 | 1.35e5 | 1.87e5 | 3.48e5 | 2.35e5 |
| egr | DRSC06233 | 4.18e5 | 3.82e5 | 2.34e6 | 2.22e6 |
| Prps | DRSC08994 | 2.13e5 | 1.31e5 | 3.60e5 | 2.47e5 |
| Prps | DRSC10707 | 2.04e5 | 2.11e5 | 2.16e6 | 1.87e6 |
| Prps | DRSC10708 | 2.91e5 | 1.94e5 | 3.67e6 | 2.55e6 |
| CG10333 | DRSC02036 | 6.66e5 | 7.61e5 | 1.65e6 | 2.02e6 |
| CG10333 | DRSC29270 | 1.07e6 | 7.82e5 | 2.12e6 | 1.73e6 |
| sun | DRSC20140 | 4.25e5 | 4.01e5 | 4.02e6 | 2.84e6 |
| sun | DRSC26284 | 2.63e5 | 2.63e5 | 7.70e5 | 6.18e5 |
| CG11786 | DRSC14389 | 1.84e5 | 2.31e5 | 2.77e6 | 3.20e6 |
| CG14356 | DRSC14819 | 2.48e5 | 1.75e5 | 3.47e6 | 2.67e6 |
| Ndc80 | DRSC20221 | 92063 | 1.19e5 | 9.69e5 | 1.13e6 |
| Ndc80 | DRSC21726 | 3.16e5 | 3.03e5 | 1.14e6 | 1.41e6 |
| LManIV | DRSC03222 | 2.37e5 | 2.29e5 | 1.98e6 | 1.88e6 |
| LManIV | DRSC27811 | 2.92e5 | 2.36e5 | 4.69e5 | 7.08e5 |
| cpx | DRSC11999 | 1.55e5 | 1.55e5 | 3.75e5 | 3.39e5 |
| eIF4B | DRSC37929 | 5.35e5 | 5.84e5 | 7.66e5 | 1.47e6 |
| Caper | DRSC02137 | 8.18e5 | 7.55e5 | 1.18e6 | 1.70e6 |
| comr | DRSC04138 | 2.69e5 | 2.71e5 | 1.57e6 | 1.20e6 |
| CG44153 | DRSC02228 | 6.82e5 | 6.09e5 | 2.52e6 | 2.15e6 |
| CG44153 | DRSC02229 | 1.85e5 | 1.46e5 | 9.33e5 | 9.72e5 |
| CG44153 | DRSC02231 | 1.36e5 | 2.08e5 | 9.69e5 | 1.25e6 |
| CG44153 | DRSC02233 | 1.33e5 | 1.66e5 | 9.47e5 | 1.20e6 |
| CG44153 | DRSC02902 | 2.03e5 | 2.09e5 | 1.52e6 | 1.61e6 |
| CG44153 | DRSC02903 | 1.95e5 | 1.68e5 | 1.12e6 | 1.23e6 |
| CG44153 | DRSC28467 | 4.18e5 | 6.34e5 | 8.16e5 | 9.90e5 |
| CG44153 | DRSC38921 | 7.03e5 | 8.50e5 | 1.65e6 | 1.77e6 |
| CG34444 | DRSC06435 | 65486 | 77816 | 6.45e5 | 6.45e5 |
| Grip | DRSC18395 | 2.59e5 | 3.05e5 | 2.99e6 | 3.49e6 |
| Grip | DRSC26610 | 2.93e5 | 2.76e5 | 6.37e5 | 7.84e5 |
| ifc | DRSC03549 | 9.25e5 | 8.84e5 | 1.57e6 | 1.75e6 |
| run | DRSC20584 | 34914 | 33261 | 3.97e5 | 2.77e5 |
| run | DRSC21515 | 7.86e5 | 6.20e5 | 3.11e6 | 2.16e6 |
| run | DRSC27251 | 2.77e5 | 2.00e5 | 3.89e5 | 3.31e5 |
| CG42561 | DRSC05676 | 1.60e5 | 2.03e5 | 3.19e5 | 2.72e5 |
| CG15084 | DRSC06515 | 6.09e5 | 9.67e5 | 2.14e6 | 2.32e6 |
| CG15084 | DRSC21403 | 7.97e5 | 8.76e5 | 1.75e6 | 1.80e6 |
| CG15084 | DRSC27128 | 2.91e5 | 2.48e5 | 6.40e5 | 7.19e5 |
| CG7857 | DRSC10925 | 4.00e5 | 1.65e5 | 2.30e6 | 1.89e6 |
| CG7857 | DRSC29862 | 9.79e5 | 9.78e5 | 1.08e6 | 1.55e6 |
| Tmem63 | DRSC06063 | 2.79e5 | 2.26e5 | 1.32e6 | 9.46e5 |
| Tmem63 | DRSC27402 | 1.98e5 | 1.89e5 | 6.28e5 | 4.65e5 |
| Ras64B | DRSC08689 | 1.05e5 | 70639 | 1.27e6 | 6.85e5 |
| Ras64B | DRSC26766 | 3.32e5 | 2.68e5 | 1.04e6 | 6.08e5 |
| CG13639 | DRSC14638 | 2.44e5 | 2.48e5 | 2.18e6 | 2.01e6 |
| CG6503 | DRSC16056 | 2.22e5 | 2.58e5 | 3.21e6 | 3.07e6 |
| CG6503 | DRSC29619 | 4.29e5 | 6.56e5 | 1.63e6 | 1.63e6 |
| Ebp | DRSC04048 | 1.02e6 | 9.44e5 | 1.79e6 | 1.49e6 |
| Ebp | DRSC27342 | 6.43e5 | 6.30e5 | 1.01e6 | 9.41e5 |

Copied from the list.
For “firefly reporter light, replicate 1”, CG15084 [DRSC21403] shows 7.97e5
eIF4B [DRSC37929], Renilla control light, replicate 1 → 7.66e5
Entry of CG44153 [DRSC02229] in “Renilla control light, replicate 2”: 9.72e5
Ndc80 [DRSC20221], firefly reporter light, replicate 2 → 1.19e5
Under “firefly reporter light, replicate 1”, Grip [DRSC18395] reads 2.59e5
run [DRSC20584], firefly reporter light, replicate 1 → 34914
